Measurements reported in PubChem BioAssay AID652272 (Drosophila RNAi Screening Center, 2013)

Test: 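Genome-wide knock-down search for components of Hedgehog signalling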 (primary screen)
Cell system: Drosophila clone 8 (Cl8) cells
Reagents: long dsRNA against Drosophila genes
Measurement: 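Firefly light from a Hedgehog-responsive ptc promoter reporter and Renilla reference light, both read on a plate reader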
Scale: firefly Hh reporter signal: higher = more ptc reporter light; Renilla reference signal: higher = more Renilla control light
Call rule: 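Called a hit if the two-replicate mean z-score lies below -2 or above +3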
Calls: active = hit: reporter lowered or raised; inactive = not a hit
In all, the deposit lists about 21,000 reagents; shown is a random part of those with a known target gene and a result. Of all reagents, 503 (2.4%) were called active. 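Raw plate light values, not normalised; calls rest on replicate z-scores that were not deposited; hits include reporter decreases as well as increases.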 A number with no mark means an inactive call. Names joined by + are all predicted targets of the reagent. Not stated in the record: the amount of reagent, the time to read-out.

no.	Gene	DRSC id	firefly Hh reporter signal, replicate 1	firefly Hh reporter signal, replicate 2	firefly Hh reporter signal, replicate 3	Renilla reference signal, replicate 1	Renilla reference signal, replicate 2
1	GstD9 (Glutathione S transferase D9)	DRSC14185	58178	1.03e5		1808	2640
2	CG7126	DRSC16201	5.22e5	74328		28496	1793
3	CG6403	DRSC16033	1.20e5	1.22e5		4949	3978
4	Dhc16F (Dynein heavy chain at 16F)	DRSC20242	92080	2.61e5		2289	10658
5	CG9062	DRSC07327	86201	32052		2220	2608
6	Hsp70Bc (Heat shock protein 70 Bc)	DRSC16053	57239	94569		2156	2636
7	Ciz1 (Ciz1 zinc finger protein)	DRSC09675	55762 (active)	8513	13720	2906	1938
8	Semp1 (Seminal metalloprotease-1)	DRSC01874	1.11e5	82864		2708	6369
9	pyd3	DRSC15459	2.29e5	9.68e5	1.29e5	8289	57661
10	zuc (zucchini)	DRSC02160	1.14e5	91232		4897	4005
11	Pop2	DRSC10537	75938 (active)	38135		5324	3018
12	CG16824	DRSC02525	1.18e5	46098		2198	3973
13	CG8944	DRSC20128	1.42e5	7.41e5	1.26e5	3129	5943
14	Mvb12 (Multivesicular body subunit 12)	DRSC20027	66091	2.24e5		1677	10001
15	GCS2beta (Glucosidase 2 beta subunit)	DRSC02960	5.09e5	85610		3501	3501
16	Tsp97E (Tetraspanin 97E)	DRSC16019	1.16e5	72080		2971	2033
17	prod (proliferation disrupter)	DRSC07667	84400	65974		3667	2818
18	twy (twitchy)	DRSC10562	49540	44407	72354	4889	6352
19	CG13097	DRSC02199	60018	84209		2720	3097
20	GluClalpha (Glutamate-gated chloride channel subunit alpha)	DRSC16680	7.76e5	1.28e5		35318	3783
21	Pat1 (Protein interacting with APP tail-1)	DRSC17750	95616	72701		2468	1773
22	CG9121	DRSC03142	1.06e5	48928		2619	4477
23	Rab3GAP1 (RAB3 GTPase activating protein subunit 1)	DRSC00291	1.54e5	96073		2924	2176
24	Rab3GAP1 (RAB3 GTPase activating protein subunit 1)	DRSC00703	1.65e5	1.12e5		3499	2986
25	wgn (wengen)	DRSC19998	80679	2.02e5		1078	7755
26	jdp	DRSC16975	88344	1.07e5		1603	3164
27	alpha-Est5 (alpha-Esterase-5)	DRSC12617	1.70e5	1.26e5		6696	4922
28	RIOK2 (RIO kinase 2)	DRSC14413	5.25e5	74912		29764	2419
29	mei-P22 (meiotic P22)	DRSC11366	82356	45690		10809	3811
30	CG17260	DRSC00497	88359	95323		3900	4104
31	CG2233	DRSC18217	90624	78628		2224	1865
32	Ced-12	DRSC02840	99728	45680		2528	4685
33	CG6345	DRSC16024	1.16e5	1.19e5		4698	3404
34	CG30196	DRSC04156	1.12e5	64867		2874	6108
35	ND2 (retired record)	DRSC21274	1.15e5	3.43e5		2156	14441
36	l(2)k09913 (lethal (2) k09913)	DRSC04699	47697	40217		2144	1889
37	CG13887	DRSC08357	91610	90836		3531	3484
38	Cyp9b1 (Cytochrome P450 9b1)	DRSC07389	80997	58563		2032	4169
39	Scgbeta (Sarcoglycan beta)	DRSC15854	89623	2.15e5		3417	10688
40	Gem4b + Gem4c + Glos	DRSC18244	89852	1.76e5		3289	6214
41	Pepck1 (Phosphoenolpyruvate carboxykinase 1)	DRSC07505	1.62e5	80348		4560	6368
42	CG14423	DRSC17920	1.04e5	2.54e5		3506	8704
43	iav (inactive)	DRSC18363	67728	2.85e5		3081	10937
44	CR15821 (pseudo)	DRSC08481	96202	58216		2529	4757
45	LBR (Lamin B receptor)	DRSC04298	1.27e5	1.20e5		4964	4246
46	Prosbeta5R1 (Proteasome beta5 subunit-related 1)	DRSC04581	87426	57027		885	5276
47	CG43174 (retired record)	DRSC09518	2.41e5			5461	
48	DIP-kappa (Dpr-interacting protein kappa)	DRSC01336	5.28e5	1.75e5		25079	6811
49	DIP-kappa (Dpr-interacting protein kappa)	DRSC01337	5.65e5	2.30e5		26972	9218
50	sca (scabrous)	DRSC07677	68074	39269		1808	3085
51	l(3)76BDm (lethal (3) 76BDm)	DRSC11047	73625	1.04e5		3147	3991
52	HDAC3 (Histone deacetylase 3)	DRSC12352	48352 (active)	47621		3461	3323
53	Osi4 (Osiris 4)	DRSC12134	80593	1.12e5		3281	2908
54	Cht8 (Chitinase 8)	DRSC04546	1.20e5	51635		3143	4486
55	Vml (Vitelline membrane-like)	DRSC17695	4.49e5	1.53e5		22896	3096
56	Vml (Vitelline membrane-like)	DRSC18529	1.15e5	2.25e5		1718	9609
57	CG6686	DRSC02979	58900	41397		3152	2824

Copied from the entries so far (4 entries):
no.	Gene	DRSC id	firefly Hh reporter signal, replicate 1	firefly Hh reporter signal, replicate 2	firefly Hh reporter signal, replicate 3	Renilla reference signal, replicate 1	Renilla reference signal, replicate 2
53	Osi4 (Osiris 4)	DRSC12134	80593	1.12e5		3281	2908
54	Cht8 (Chitinase 8)	DRSC04546	1.20e5	51635		3143	4486
55	Vml (Vitelline membrane-like)	DRSC17695	4.49e5	1.53e5		22896	3096
56	Vml (Vitelline membrane-like)	DRSC18529	1.15e5	2.25e5		1718	9609
